Experimental data taken from patent US11230581B2, “Peptides and combination of peptides for use in immunotherapy against ovarian cancer and other cancers” (Immatics Biotechnologies GmbH, priority 2015, dated 2022).
For some assays here: Expression values are those of the mRNA of the gene that encodes the peptide; a gene is named only where it was looked up.

How the values were obtained:
[1] = test system: NSCLC tumor samples; test: Absolute quantitation of TUMAP copies per cell (nanoLC-MS/MS, isolation efficiency, DNA-based cell count); set-up: species or system human; settings: absolute peptide quantitation in NSCLC tumor samples
[2] = test system: additional tumor types; test: LC-MS detection and over-presentation of the peptides on additional tumor types, cell lines and primary cultures; set-up: species or system human; settings: for Other relevant organs/ cancerous diseases: Table 4A: additional tumor types on which the peptide was found, over-presented on more than 5% of measured tumor samples, or presented on more than 5% with ratio of geometric means tumor vs normal tissues larger than 3
[3] = test system: ovarian cancer samples; test: Relative LC-MS quantitation of HLA-presented peptides: presentation and over-presentation on ovarian cancer vs a panel of normal tissues (presentation score); set-up: species or system human; key: +++: very highly over-presented on tumors compared to a panel of normal tissues; ++: highly over-presented on tumors compared to a panel of normal tissues; +: over-presented on tumors compared to a panel of normal tissues; settings: over-presentation on tumors compared to a panel of normal tissues
[4] = test system: source genes of the peptides (mRNA) in ovarian cancer vs normal tissues; test: Expression profiling of genes encoding the peptides (RNAseq, expression score); set-up: species or system human; key: +++: very highly over-expressed in tumors compared to a panel of normal tissues; ++: highly over-expressed in tumors compared to a panel of normal tissues; +: over-expressed in tumors compared to a panel of normal tissues; settings: source gene over-expression in tumors compared to a panel of normal tissues
[5] = amendment of Table 4: additional tumor types showing over-presentation (including specific presentation) on more than 5% of measured tumor samples, or presentation on more than 5% with ratio of geometric means tumor vs normal tissues larger than 3
[6] = additional tumor types with over-presentation on more than 5% of the measured tumor samples, or presentation on more than 5% with ratio of geometric means tumor vs normal tissues larger than 3

| Substance | Copy Number Category (median number of copies per cell) [1] | Other relevant organs/ cancerous diseases [2] | Additional organs/cancerous diseases [2, 5] | Peptide Presentation (presentation score) [3] | Gene Expression (expression score) [4] | Additional organs/cancerous diseases [2, 6] |
| --- | --- | --- | --- | --- | --- | --- |
| 11 (KIFEMLEGV; listed as Homo sapiens) [compound 11] | ++ (>= 100 = ++) | NSCLC | Gallbladder Cancer and Bile Duct Cancer | +++ |  |  |
| 184: peptide found in RNF213 (gene looked up) (YLMDINGKMWL; listed as Homo sapiens) [compound 184] |  | NSCLC, SCLC, Melanoma | CLL, Uterine Cancer, Gallbladder Cancer and Bile Duct Cancer, NHL | +++ | ++ |  |
| 193: peptide found in CLSPN (gene looked up) (QLLDADGFLNV; listed as Homo sapiens) [compound 193] |  |  |  | +++ | +++ | SCLC, NHL |
| 194: peptide found in SLC28A3 (gene looked up) (ALPLFVITV; listed as Homo sapiens) [compound 194] |  |  |  | +++ | ++ | AML, HNSCC |
| 198 (KTINKVPTV; listed as Homo sapiens) [compound 198] | ++ (>= 100 = ++) | NSCLC, HCC |  | +++ |  | SCLC, Brain Cancer, CRC, Urinary Bladder Cancer, Uterine Cancer, HNSCC |
| 210: peptide found in UNG (gene looked up) (LLLNAVLTV; listed as Homo sapiens) [compound 210] |  | Urinary bladder Cancer |  | ++ | + | SCLC, AML, NHL |
| 230: peptide found in CCNA2 (gene looked up) (ILVDWLVEV; listed as Homo sapiens) [compound 230] |  | Melanoma, Endometrium |  | +++ | +++ | Esophageal Cancer, Gallbladder Cancer and Bile Duct Cancer, AML, NHL, HNSCC |
| 235: peptide found in CCNE1 (gene looked up) (YLNDLHEVLL; listed as Homo sapiens) [compound 235] |  | Esophageal Cancer, Uterine Cancer, Gallbladder Cancer, Bile Duct Cancer |  | +++ | ++ | NSCLC, Urinary Bladder Cancer |
| 372: peptide found in RNF213 (gene looked up) (TMLLNIPLV; listed as Homo sapiens) [compound 372] |  | SCLC, HCC, PC, PrC, BrCa |  | +++ | ++ | CLL, Gallbladder Cancer and Bile Duct Cancer, AML, NHL |
| 408 (VLDDSIYLV; listed as Homo sapiens) [compound 408] | ++ (>= 100 = ++) | Leukemia |  |  |  | CLL, Uterine Cancer, NHL |
| 427 (ALLPLSPYL; listed as Homo sapiens) [compound 427] | +++ (>= 1,000 +++) | NSCLC, SCLC, HCC, PC, BrCa, Uterine Cancer |  | +++ |  | Gallbladder Cancer and Bile Duct Cancer |
| 432: peptide found in ABCC4 (gene looked up) (TLIEESAKV; listed as Homo sapiens) [compound 432] |  | Prostate |  | +++ | + |  |
| 443: peptide found in HDGF (gene looked up) (GLWEIENNPTV; listed as Homo sapiens) [compound 443] |  | NSCLC, SCLC, HCC, PC, PrC, Melanoma |  | ++ | + | Gallbladder Cancer and Bile Duct Cancer |
| 446: peptide found in EYA2 (gene looked up) (QLIPALAKV; listed as Homo sapiens) [compound 446] |  | NSCLC, SCLC, PrC, BrCa, MCC, Uterine Cancer |  | +++ | +++ | Brain Cancer |
| 456: peptide found in NUP205 (gene looked up) (LLIGHLERV; listed as Homo sapiens) [compound 456] |  |  |  | ++ | + | BRCA, AML, NHL, HNSCC |
| 465: peptide found in KIFC1 (gene looked up) (QLCDLNAEL; listed as Homo sapiens) [compound 465] |  | HCC, Esophageal Cancer |  | +++ | ++ | SCLC, Melanoma, AML, HNSCC |
| 509: peptide found in CANX (gene looked up) (FLFDTKPLIV; listed as Homo sapiens) [compound 509] |  |  |  | +++ | + | CLL |
| 551: peptide found in NCAPD3 (gene looked up) (KLYESLLPFA; listed as Homo sapiens) [compound 551] |  | SCLC, HCC, PrC, Melanoma |  | ++ | + | CLL, BRCA, Urinary Bladder Cancer, Gallbladder Cancer and Bile Duct Cancer, AML, NHL, HNSCC |
| 587 (VMNDRLYAI; listed as Homo sapiens) [compound 587] | ++ (>= 100 = ++) | Leukemia |  |  |  | CLL, NHL |
| 588: peptide found in RNF213 (gene looked up) (SLLPLSHLV; listed as Homo sapiens) [compound 588] |  | Melanoma, Esophageal Cancer |  | + | + | CLL, Gallbladder Cancer and Bile Duct Cancer, AML, NHL, HNSCC |
| 595: peptide found in TAP1 (gene looked up) (VLLSIYPRV; listed as Homo sapiens) [compound 595] |  | NSCLC, SCLC, RCC, Leukemia, BrCa |  | + | ++ | CLL, Urinary Bladder Cancer, Gallbladder Cancer and Bile Duct Cancer |
| 629: peptide found in NUP205 (gene looked up) (HLLNESPML; listed as Homo sapiens) [compound 629] |  | SCLC, Esophageal Cancer |  | ++ | + | RCC, PC, BRCA, Melanoma, Uterine Cancer, Gallbladder Cancer and Bile Duct Cancer, AML |
| 631: peptide found in PRKDC (gene looked up) (FLDVFLPRV; listed as Homo sapiens) [compound 631] |  | PC, Leukemia, Melanoma, Esophageal Cancer |  | + | + | SCLC, CLL, NHL |
| 632: peptide found in SMARCC1 (gene looked up) (YLIPDIDLKL; listed as Homo sapiens) [compound 632] |  | NSCLC, SCLC, CRC, HCC, PC, Leukemia, Melanoma, Urinary bladder Cancer, Uterine Cancer |  | ++ | + | CLL, AML, NHL, HNSCC |
